Source: paper PMC10058949 (Pharmaceutics, 2023)

Assay: general procedure: Fmoc solid-phase peptide synthesis
Settings: whole synthesis, RP-HPLC with UV chromatograms; MALDI-TOF MS, scale of the general procedure 100 mg resin

Row | Substance | final HPLC purity [%]
1 | DOTA-(DGlu)6-Ala-Tyr-Gly-Trp-(N-Me)Nle-Asp-1Nal-NH2 | ≥98
2 | DOTA-(GABOB)2-βAla-Trp-(N-Me)Nle-Asp-1Nal-NH2 | ≥98
